For at least one compound, name, drawing or mass did not settle the structure.
Target: angiotensin II binding to rat adrenal receptor preparations
Test: inhibition of 125I-angiotensin II binding to rat adrenal receptor preparations

## COc1ccc(Cn2cnc3c2C[C@@H](C(=O)O)N(C(=O)C(c2ccc(C)cc2)c2ccc(C)cc2)C3)cc1C [Example 25, (S)-[bis(4-methylphenyl)acetyl]-4,5,6,7-tetrahydro-1-[(4-methoxy-3-methylphenyl)methyl]-1H-imidazo[4,5-c]-pyridine-6-carboxylic acid]
  IC50: 0.51 µM

Source: patent US4812462A, “4,5,6,7-tetrahydro-1H-imidazo[4,5-c]pyridine-6-carboxylic acid analogs having antihypertensive activity” (Warner-Lambert Company, priority 1986, dated 1989)
